For at least one compound, name, drawing or mass did not settle the structure.
Tested on: microglial cells
Experiment: LPS-induced TNF-α release in cultured microglial cells (ELISA)
Type: cell-based
Conditions: pretreatment; murine derived microglial cells

CC(=O)OCC[N+](C)(C)C [ACh, acetylcholine]
LPS-induced TNF-α release: inhibited
